{
  "sequences": {"note": "By UniProt entry, the sequences of proteins in these tests, tags left out.", "UniProt Q9NXA8, whole entry, looked up": "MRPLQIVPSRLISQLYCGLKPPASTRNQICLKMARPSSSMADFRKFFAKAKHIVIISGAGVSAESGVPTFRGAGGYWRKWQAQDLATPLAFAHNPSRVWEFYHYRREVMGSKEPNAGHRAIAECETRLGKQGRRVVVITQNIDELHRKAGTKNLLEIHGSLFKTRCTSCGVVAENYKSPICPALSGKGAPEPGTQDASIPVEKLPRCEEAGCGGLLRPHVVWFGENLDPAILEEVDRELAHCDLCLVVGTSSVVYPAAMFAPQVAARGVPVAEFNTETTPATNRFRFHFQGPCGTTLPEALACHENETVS"},
  "source": "PubChem BioAssay AID652115",
  "about": "(Broad Institute, 2013)",
  "note": "Out of some 330,000 compounds screened, about 3,800 (1.2%) were called active. This list was built around the results that the source calls inconclusive (neither active nor inactive); the mix of calls is not that of the screen. No stated cut-off is given here; in the data, active means inhibition above about 15%; inconclusive means no clear call, values can overlap the other calls; inactive means below that.",
  "data": [
    {"target": "NAD-dependent protein deacylase sirtuin-5, mitochondrial (Homo sapiens) (UniProt Q9NXA8)", "assay": "SIRT5 desuccinylase inhibitors, primary screen, biochemical, fluorescence imaging, single point, set 5 (AID 652115)", "conditions": "Purified SirT5, succinyl-peptide AMC, trypsin-coupled fluorescence; at 15 µM; active compounds read high", "values": [
      {"compound": "COc1ccc(S(=O)(=O)N(C)C[C@@H]2Oc3cc(-c4ccccc4OC)ccc3S(=O)(=O)N([C@H](C)CO)C[C@@H]2C)cc1", "inhibition": "inconclusive: 20.6%"},
      {"compound": "COc1ccc(OCc2nnc(SCC(=O)NC3CC3)n2C)cc1", "inhibition": "inactive: -2.3%"},
      {"compound": "COc1cccc(C#Cc2cnc3c(c2)C(=O)N([C@@H](C)CO)C[C@@H](C)[C@H](CN(C)C(=O)C2CCCCC2)O3)c1", "inhibition": "inconclusive: 17.5%"},
      {"compound": "COc1ccc(C2CC(c3cccs3)=NN2C(=O)CN2CCCCC2)cc1", "note": "(stereo not drawn)", "inhibition": "active: 32.6%"},
      {"compound": "Cc1cccc(C)c1NC(=S)N(CCc1ccncc1)C(C)C", "inhibition": "active: 15.9%"},
      {"compound": "C[C@H](CO)N1C[C@H](C)[C@H](CN(C)C(=O)CCCN(C)C)OCc2cn(nn2)CCCC1=O", "inhibition": "active: 17.2%"},
      {"compound": "Cn1cnc(CCNC(=O)C[C@@H]2CC[C@@H]3[C@H](COC[C@@H](O)CN3C(=O)Nc3ccccc3)O2)c1", "inhibition": "active: 15.8%"},
      {"compound": "COc1ccc(C#Cc2ccc3c(c2)O[C@H](CN(C)C(=O)NC2CCCCC2)[C@@H](C)CN([C@H](C)CO)S3(=O)=O)cc1", "inhibition": "inconclusive: -0.179%"},
      {"compound": "CO[C@@H]1CN(C)C(=O)c2ccc(NC(=O)NC(C)C)cc2OC[C@H](C)N(CCC(F)(F)F)C[C@H]1C", "inhibition": "inactive: 7.87%"},
      {"compound": "C[C@@H]1CN([C@H](C)CO)S(=O)(=O)c2ccc(/C=C/c3ccccc3)cc2O[C@H]1CN(C)Cc1ccc(C(=O)O)cc1", "inhibition": "inconclusive: 15.1%"},
      {"compound": "COc1cccc(NC(=O)N(C)C[C@H]2Oc3ncc(C#Cc4cccnc4)cc3C(=O)N([C@H](C)CO)C[C@H]2C)c1", "inhibition": "inconclusive: 22%"},
      {"compound": "COc1ccc(S(=O)(=O)Nc2ccc3c(c2)C(=O)N([C@H](C)CO)C[C@H](C)[C@@H](CN(C)Cc2ccc(C(F)(F)F)cc2)OCCCC[C@H](C)O3)cc1", "inhibition": "inactive: 14.7%"},
      {"compound": "C[C@H]1CN([C@@H](C)CO)C(=O)c2cc(-c3ccccc3)cnc2O[C@@H]1CN(C)C(=O)c1cccnc1", "inhibition": "inconclusive: 16.4%"},
      {"compound": "CO[C@@H]1CN(C)C(=O)c2cc(NC(=O)Nc3ccccc3)ccc2OC[C@@H](C)N(C(=O)CN(C)C)C[C@H]1C", "inhibition": "inactive: 2.78%"},
      {"compound": "C[C@@H]1CN([C@@H](C)CO)C(=O)c2cc(NC(=O)Cc3ccccc3)ccc2O[C@@H]1CN(C)S(=O)(=O)c1ccc(Cl)cc1", "inhibition": "inactive: 11.7%"},
      {"compound": "C=CCn1c(SCC(=O)c2ccc(O)c(O)c2)nnc1-c1cccc(Cl)c1", "inhibition": "inactive: 8.77%"},
      {"compound": "Cc1ccc(-c2cnc3c(c2)C(=O)N([C@H](C)CO)C[C@H](C)[C@H](CN(C)C(=O)Cc2ccncc2)O3)cc1", "inhibition": "inconclusive: 15.8%"},
      {"compound": "COc1ccc(-c2cnc3c(c2)C(=O)N([C@@H](C)CO)C[C@H](C)[C@@H](CN(C)C(=O)Cc2ccccc2)O3)cc1", "inhibition": "inconclusive: 1.98%"},
      {"compound": "COc1ccc(C)cc1NC(=O)c1cccc(C(=O)Nc2cc(C)ccc2OC)c1", "inhibition": "active: 15.8%"},
      {"compound": "COc1cccc(-c2ccc3c(c2)O[C@@H](CN(C)C(=O)C2CCCCC2)[C@@H](C)CN([C@H](C)CO)S3(=O)=O)c1", "inhibition": "inconclusive: 5.04%"},
      {"compound": "C[C@@H]1CN([C@H](C)CO)S(=O)(=O)c2ccc(-c3ccccc3)cc2O[C@H]1CN(C)S(=O)(=O)c1ccccc1F", "inhibition": "inconclusive: -5.74%"},
      {"compound": "COc1cccc(-c2ccc3c(c2)O[C@@H](CN(C)C(=O)C2CCCCC2)[C@H](C)CN([C@H](C)CO)S3(=O)=O)c1", "inhibition": "inconclusive: 8.45%"},
      {"compound": "C[C@H]1CN([C@@H](C)CO)S(=O)(=O)c2ccc(C#Cc3ccccc3)cc2O[C@@H]1CN(C)C(=O)Nc1ccccc1", "inhibition": "inconclusive: 21.3%"},
      {"compound": "C[C@@H]1CN([C@H](C)CO)C(=O)c2cc(NS(=O)(=O)c3ccccc3)ccc2O[C@@H](C)CCCCO[C@H]1CN(C)S(=O)(=O)c1ccc(F)cc1", "inhibition": "inconclusive: 15.8%"},
      {"compound": "CCCNC(=O)N(C)C[C@H]1Oc2cc(C#Cc3ccccn3)ccc2S(=O)(=O)N([C@H](C)CO)C[C@H]1C", "inhibition": "inconclusive: -1.37%"},
      {"compound": "C[C@@H]1CN([C@H](C)CO)C(=O)c2cc(NC(=O)NC3CCCCC3)ccc2O[C@@H](C)CCCCO[C@@H]1CN(C)Cc1ccc2c(c1)OCO2", "inhibition": "inactive: 4.35%"},
      {"compound": "C[C@H](CO)N1C[C@H](C)[C@H](CN(C)S(=O)(=O)c2cccc(F)c2)Oc2ncc(C#CC3CCCCC3)cc2C1=O", "inhibition": "active: 20.8%"},
      {"compound": "O=C1/C(=C\\c2ccccc2)CN(C(=O)CCN2CCCCC2)C/C1=C/c1ccccc1", "inhibition": "inactive: -1.51%"},
      {"compound": "CCCC#Cc1cnc2c(c1)C(=O)N([C@H](C)CO)C[C@H](C)[C@@H](CN(C)C(=O)C1CC1)O2", "inhibition": "inconclusive: -13.7%"},
      {"compound": "CC(C)CC#Cc1ccc2c(c1)O[C@@H](CN(C)Cc1ccc3c(c1)OCO3)[C@H](C)CN([C@H](C)CO)S2(=O)=O", "inhibition": "inconclusive: 8.34%"},
      {"compound": "CCn1c2ccccc2c2cc(NC(=O)c3ccco3)ccc21", "inhibition": "inactive: 0.144%"},
      {"compound": "O=C(Nc1cccc(Br)c1)c1ccc(CN2CCc3ccccc3C2)cc1", "inhibition": "inactive: -31.7%"},
      {"compound": "COc1ccccc1-c1ccc2c(c1)O[C@H](CN(C)Cc1ccc3c(c1)OCO3)[C@H](C)CN([C@@H](C)CO)S2(=O)=O", "inhibition": "inconclusive: 0.325%"},
      {"compound": "C[C@@H]1CN([C@@H](C)CO)C(=O)c2cccc(NC(=O)Nc3ccccc3)c2O[C@@H]1CN(C)Cc1ccc(Oc2ccccc2)cc1", "inhibition": "inconclusive: 15.3%"},
      {"compound": "CC(C)C#Cc1ccc2c(c1)O[C@@H](CN(C)CC1CCCC1)[C@H](C)CN([C@@H](C)CO)S2(=O)=O", "inhibition": "inconclusive: 0.791%"},
      {"compound": "C[C@H](CO)N1C[C@H](C)[C@H](CN(C)C(=O)Cc2ccncc2)Oc2ncc(C#CCN(C)C)cc2C1=O", "inhibition": "inconclusive: 16.9%"},
      {"compound": "CCCN1[C@@H]2c3ccc(C4=CCCCC4)c(=O)n3C[C@@H]2[C@@H](CO)[C@@H]1C(=O)NCCCN(C)C", "inhibition": "inactive: -8.04%"},
      {"compound": "CO[C@@H](CN(C)C(=O)C1CC1)[C@H](C)CN(C(=O)Nc1ccc(C(F)(F)F)cc1)[C@@H](C)CO", "inhibition": "inconclusive: -7.88%"},
      {"compound": "CCOC(=O)C(C)Sc1nnc2n1C(C)(C)Cc1ccccc1-2", "note": "(stereo not drawn)", "inhibition": "inactive: -9.06%"},
      {"compound": "C[C@H]1CN([C@@H](C)CO)S(=O)(=O)c2ccc(C#Cc3ccccn3)cc2O[C@H]1CN(C)Cc1cccc(F)c1", "inhibition": "inconclusive: 27.1%"},
      {"compound": "COC(=O)c1ccc(=O)c2nc3/c(=C/O)c(O)cc(=O)c3[nH]c12", "inhibition": "active: 20.1%"},
      {"compound": "CN(C)CC(=O)Nc1ccc2c(c1)[C@@H]1C[C@@H](CC(=O)NC3CCCCC3)O[C@H](CO)[C@@H]1O2", "inhibition": "inactive: -1.57%"},
      {"compound": "CO[C@H]1CN(C)C(=O)c2cc(NC(=O)C3CCOCC3)ccc2OC[C@H](C)N(C)C[C@H]1C", "inhibition": "inactive: -2.08%"},
      {"compound": "Cc1ccc(-c2cnc3c(c2)C(=O)N([C@@H](C)CO)C[C@@H](C)[C@H](CN(C)C(=O)Cc2ccncc2)O3)cc1", "inhibition": "inconclusive: 15.2%"},
      {"compound": "Cc1ccc(OCc2nc(-c3ccccn3)no2)cc1", "inhibition": "active: 16.4%"},
      {"compound": "COCC#Cc1cnc2c(c1)C(=O)N([C@@H](C)CO)C[C@H](C)[C@@H](CN(C)Cc1ccccc1)O2", "inhibition": "inconclusive: 19.8%"},
      {"compound": "COc1ccc(S(=O)(=O)N(C)C[C@@H]2Oc3ncc(C#Cc4ccc(OC)c(OC)c4)cc3C(=O)N([C@H](C)CO)C[C@@H]2C)cc1", "inhibition": "inconclusive: 8.52%"},
      {"compound": "CC(=O)NN1C(=O)c2ccccc2NC1c1ccc(N(C)C)cc1", "note": "(stereo not drawn)", "inhibition": "inactive: -9.51%"},
      {"compound": "C/C=C/c1cnc2c(c1)C(=O)N([C@@H](C)CO)C[C@@H](C)[C@H](CN(C)C(=O)Nc1ccccc1F)O2", "inhibition": "inconclusive: -4.34%"},
      {"compound": "C[C@@H]1CN([C@H](C)CO)C(=O)Cc2cc(NC(=O)Nc3ccc(F)cc3)ccc2O[C@H]1CN(C)C", "inhibition": "inactive: 5.38%"},
      {"compound": "COc1cccc(-c2ccc3c(c2)O[C@H](CN(C)C(=O)C2CCCCC2)[C@@H](C)CN([C@H](C)CO)S3(=O)=O)c1", "inhibition": "inconclusive: 8.46%"},
      {"compound": "O=C(O)[C@@]1(CCS(=O)(=O)c2ccccc2)COC(c2ccc(OCCCO)cc2)=N1", "inhibition": "inactive: -3.29%"},
      {"compound": "C[C@@H]1CN([C@H](C)CO)S(=O)(=O)c2ccc(C#Cc3ccccc3)cc2O[C@H]1CN(C)C(=O)Nc1ccccc1", "inhibition": "inconclusive: 19.8%"},
      {"compound": "C[C@@H]1CN([C@H](C)CO)S(=O)(=O)c2ccc(C#CCN(C)C)cc2O[C@@H]1CN(C)C(=O)CN(C)C", "inhibition": "inconclusive: 17.5%"},
      {"compound": "O=C(N[C@H]1CC[C@H](CCNC(=O)C2CCCCC2)O[C@H]1CO)c1ccccn1", "inhibition": "inactive: -0.542%"},
      {"compound": "CC(C)CC#Cc1ccc2c(c1)O[C@H](CN(C)Cc1ccccc1F)[C@H](C)CN([C@@H](C)CO)S2(=O)=O", "inhibition": "inconclusive: 15.6%"},
      {"compound": "Cc1ccc(S(=O)(=O)N(C)C[C@@H]2Oc3ncc(C#Cc4ccc(F)cc4)cc3C(=O)N([C@H](C)CO)C[C@@H]2C)cc1", "inhibition": "inconclusive: 11.2%"},
      {"compound": "COCC(=O)N(C)C[C@@H]1Oc2ncc(C#Cc3ccccc3OC)cc2C(=O)N([C@@H](C)CO)C[C@@H]1C", "inhibition": "inconclusive: -6.41%"},
      {"compound": "Cc1ccccc1NC(=S)N(Cc1ccccn1)Cc1ccccc1Cl", "inhibition": "inactive: -1.59%"},
      {"compound": "CNC[C@@H]1Oc2cc(C#CCC3CCCC3)ccc2S(=O)(=O)N([C@H](C)CO)C[C@H]1C", "inhibition": "inconclusive: 103%"},
      {"compound": "CCNC(=O)Nc1ccc2c(c1)C(=O)N(C)[C@@H]1CC[C@H](CC(=O)NCc3ccccc3F)O[C@H]1CO2", "inhibition": "inactive: 0.038%"},
      {"compound": "C[C@H](CO)N1C[C@H](C)[C@@H](CN(C)S(=O)(=O)c2ccccc2F)Oc2cc(-c3ccccc3)ccc2S1(=O)=O", "inhibition": "inconclusive: 16.7%"},
      {"compound": "O=C(C[C@H]1CC[C@H]2[C@@H](COC[C@@H](O)CN2S(=O)(=O)c2ccccc2)O1)N1CCOCC1", "inhibition": "inactive: 4.18%"}
    ]}
  ]
}
